For this test, the target named is Biotinylated human PD-1 protein (Avitag-His Tag) (human) (UniProt Q15116). The test can be described thus: yeast display, enrichment on biotinylated human PD-1 magnetic beads.

Amino acid sequences for entries named in this document (tags omitted). Residues count along the entry.
UniProt Q15116, residues 25-167: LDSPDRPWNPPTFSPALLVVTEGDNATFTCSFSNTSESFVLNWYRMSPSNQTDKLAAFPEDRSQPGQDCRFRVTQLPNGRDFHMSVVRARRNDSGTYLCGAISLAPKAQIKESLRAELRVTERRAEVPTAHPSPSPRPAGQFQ

No constants are given. Whether binding was seen depends on the method and setting. Some binding calls cover weakened binding; strength is not graded here.

B1: A6 (VHH, variable region) (VHH)
VHH: EVQLVESGGGLVQAGGSLRLSCAVSGRTFSSAAMGWFRQAPGKEREFVAAISWSFGSTYYADSVKGRFTISRDNAKNTVYLQMNSLKPEDTAVYYCAADPSIETMGGGWDYWGQGTQVTVSS
With B1, the binding entry is reported as “binds”.

Source of the values: patent publication US20240376204A1.
